Literature values as cited in patent publication US20040024065A1, “Novel metabolic targets and markers” (priority 2002, published 2004).
At least one compound was matched to its structure with a doubt left.

Tested on: cultured rat hepatocytes

CC(C)(Oc1ccc(CCNC(=O)c2ccc(Cl)cc2)cc1)C(=O)O [bezafibrate]
reduction of TG secretion (VLDL export): 60%
